Experimental data published in patent US20260265396A1.
No constants are given. Whether binding was seen depends on the method and setting. Some entries that bind do so weakly or less than the wild type.

Sequences of proteins named here, by UniProt entry; tags and fusion partners are left off. Residues count along the entry.
UniProt P02787, residues 20-698: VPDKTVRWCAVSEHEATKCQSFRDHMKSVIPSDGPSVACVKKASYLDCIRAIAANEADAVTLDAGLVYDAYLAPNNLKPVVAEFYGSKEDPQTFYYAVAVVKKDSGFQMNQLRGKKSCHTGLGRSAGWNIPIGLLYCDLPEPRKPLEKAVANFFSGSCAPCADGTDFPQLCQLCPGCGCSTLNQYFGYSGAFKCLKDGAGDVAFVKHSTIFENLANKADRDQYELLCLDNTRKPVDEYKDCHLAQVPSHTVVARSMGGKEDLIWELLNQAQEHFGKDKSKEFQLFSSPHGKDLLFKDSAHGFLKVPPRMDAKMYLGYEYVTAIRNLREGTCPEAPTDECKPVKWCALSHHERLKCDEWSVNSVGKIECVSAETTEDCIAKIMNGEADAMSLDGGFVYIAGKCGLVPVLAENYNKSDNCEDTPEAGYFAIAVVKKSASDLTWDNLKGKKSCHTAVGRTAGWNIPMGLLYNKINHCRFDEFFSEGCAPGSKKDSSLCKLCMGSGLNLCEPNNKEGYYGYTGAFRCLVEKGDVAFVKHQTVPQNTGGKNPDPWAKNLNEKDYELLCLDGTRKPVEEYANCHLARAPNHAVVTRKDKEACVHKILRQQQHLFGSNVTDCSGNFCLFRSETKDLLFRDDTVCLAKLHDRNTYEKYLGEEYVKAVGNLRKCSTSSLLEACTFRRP

Biological target: cynomolgus TfR1, construct not stated (cynomolgus)
Assay: BLI, capture of cTfR1 on transferrin-loaded sensors

- binding: binds
Substance: human holo-transferrin (from UniProt P02787 20-698) (ligand)
